# Percent effect of library compounds

Protein sequences, listed by entry. Tags and fused reporters are not part of them. Residues count along the entry.
UniProt P9WPC5, whole entry: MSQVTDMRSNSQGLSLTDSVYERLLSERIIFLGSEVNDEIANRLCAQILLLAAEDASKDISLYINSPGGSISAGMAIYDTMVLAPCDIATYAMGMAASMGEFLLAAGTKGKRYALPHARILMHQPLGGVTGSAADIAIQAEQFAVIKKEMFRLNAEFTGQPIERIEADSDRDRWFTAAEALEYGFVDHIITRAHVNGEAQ
UniProt P9WPC3, whole entry partner: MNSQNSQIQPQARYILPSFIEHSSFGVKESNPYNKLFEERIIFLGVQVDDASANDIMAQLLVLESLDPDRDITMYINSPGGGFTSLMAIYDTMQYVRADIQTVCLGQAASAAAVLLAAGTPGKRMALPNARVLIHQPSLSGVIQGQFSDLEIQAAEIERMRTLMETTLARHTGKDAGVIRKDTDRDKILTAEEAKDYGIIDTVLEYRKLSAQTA
UniProt Q4DA54, 1-478: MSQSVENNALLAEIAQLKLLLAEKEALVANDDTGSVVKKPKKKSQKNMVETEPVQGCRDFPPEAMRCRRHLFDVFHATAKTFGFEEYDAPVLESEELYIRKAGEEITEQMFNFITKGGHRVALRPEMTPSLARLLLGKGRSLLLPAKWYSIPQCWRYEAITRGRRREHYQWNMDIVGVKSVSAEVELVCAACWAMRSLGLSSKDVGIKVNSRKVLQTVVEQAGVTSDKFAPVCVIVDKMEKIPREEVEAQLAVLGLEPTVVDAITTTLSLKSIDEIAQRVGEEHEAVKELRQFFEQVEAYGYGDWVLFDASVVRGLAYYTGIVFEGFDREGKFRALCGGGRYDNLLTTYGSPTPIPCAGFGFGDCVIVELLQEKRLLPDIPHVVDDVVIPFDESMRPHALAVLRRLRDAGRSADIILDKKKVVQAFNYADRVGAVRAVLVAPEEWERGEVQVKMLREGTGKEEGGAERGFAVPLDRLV
UniProt I6X8D2, whole entry: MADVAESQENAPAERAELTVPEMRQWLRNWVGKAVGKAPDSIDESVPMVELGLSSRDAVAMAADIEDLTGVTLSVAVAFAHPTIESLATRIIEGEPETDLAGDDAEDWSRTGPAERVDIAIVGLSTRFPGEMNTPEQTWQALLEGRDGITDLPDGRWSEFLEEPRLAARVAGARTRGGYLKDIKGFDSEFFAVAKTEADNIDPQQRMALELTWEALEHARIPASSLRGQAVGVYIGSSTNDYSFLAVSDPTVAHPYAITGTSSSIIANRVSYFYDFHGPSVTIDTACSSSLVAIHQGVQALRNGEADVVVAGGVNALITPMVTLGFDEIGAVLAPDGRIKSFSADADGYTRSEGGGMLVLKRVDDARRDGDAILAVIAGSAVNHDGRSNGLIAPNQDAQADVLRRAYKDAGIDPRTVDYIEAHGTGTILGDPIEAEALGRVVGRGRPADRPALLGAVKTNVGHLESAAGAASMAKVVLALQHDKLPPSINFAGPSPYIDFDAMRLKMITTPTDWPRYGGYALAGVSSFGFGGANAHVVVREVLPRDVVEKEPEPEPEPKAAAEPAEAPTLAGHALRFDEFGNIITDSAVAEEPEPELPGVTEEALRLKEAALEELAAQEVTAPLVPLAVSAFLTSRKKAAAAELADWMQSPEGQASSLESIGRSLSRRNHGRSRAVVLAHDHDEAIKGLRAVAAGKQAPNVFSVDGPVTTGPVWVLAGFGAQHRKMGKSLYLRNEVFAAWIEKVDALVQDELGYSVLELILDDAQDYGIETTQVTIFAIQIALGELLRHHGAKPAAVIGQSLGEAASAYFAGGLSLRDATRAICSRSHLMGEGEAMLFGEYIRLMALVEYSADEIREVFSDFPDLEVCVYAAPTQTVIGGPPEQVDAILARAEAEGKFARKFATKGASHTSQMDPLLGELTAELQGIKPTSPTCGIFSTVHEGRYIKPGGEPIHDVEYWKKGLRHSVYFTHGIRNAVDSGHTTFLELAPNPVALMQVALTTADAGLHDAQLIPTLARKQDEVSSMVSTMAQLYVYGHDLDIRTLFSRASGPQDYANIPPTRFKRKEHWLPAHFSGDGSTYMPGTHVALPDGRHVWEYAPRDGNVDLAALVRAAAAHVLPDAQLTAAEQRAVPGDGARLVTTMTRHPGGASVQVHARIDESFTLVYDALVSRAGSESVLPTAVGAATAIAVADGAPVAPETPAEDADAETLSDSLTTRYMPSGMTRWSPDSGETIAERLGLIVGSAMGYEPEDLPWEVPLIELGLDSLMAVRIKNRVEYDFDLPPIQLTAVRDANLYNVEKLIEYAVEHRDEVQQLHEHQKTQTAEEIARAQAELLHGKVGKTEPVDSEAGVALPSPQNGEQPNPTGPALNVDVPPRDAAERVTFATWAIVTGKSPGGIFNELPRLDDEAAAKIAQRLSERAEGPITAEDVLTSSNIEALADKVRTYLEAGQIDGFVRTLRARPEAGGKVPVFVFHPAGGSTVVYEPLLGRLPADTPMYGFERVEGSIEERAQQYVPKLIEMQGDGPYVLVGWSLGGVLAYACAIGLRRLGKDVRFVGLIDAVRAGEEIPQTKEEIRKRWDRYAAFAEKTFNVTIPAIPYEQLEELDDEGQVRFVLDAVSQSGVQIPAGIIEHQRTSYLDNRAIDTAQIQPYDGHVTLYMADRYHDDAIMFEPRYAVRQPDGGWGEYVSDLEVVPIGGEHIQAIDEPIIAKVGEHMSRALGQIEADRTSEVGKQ
UniProt Q8IDJ8, 1-583: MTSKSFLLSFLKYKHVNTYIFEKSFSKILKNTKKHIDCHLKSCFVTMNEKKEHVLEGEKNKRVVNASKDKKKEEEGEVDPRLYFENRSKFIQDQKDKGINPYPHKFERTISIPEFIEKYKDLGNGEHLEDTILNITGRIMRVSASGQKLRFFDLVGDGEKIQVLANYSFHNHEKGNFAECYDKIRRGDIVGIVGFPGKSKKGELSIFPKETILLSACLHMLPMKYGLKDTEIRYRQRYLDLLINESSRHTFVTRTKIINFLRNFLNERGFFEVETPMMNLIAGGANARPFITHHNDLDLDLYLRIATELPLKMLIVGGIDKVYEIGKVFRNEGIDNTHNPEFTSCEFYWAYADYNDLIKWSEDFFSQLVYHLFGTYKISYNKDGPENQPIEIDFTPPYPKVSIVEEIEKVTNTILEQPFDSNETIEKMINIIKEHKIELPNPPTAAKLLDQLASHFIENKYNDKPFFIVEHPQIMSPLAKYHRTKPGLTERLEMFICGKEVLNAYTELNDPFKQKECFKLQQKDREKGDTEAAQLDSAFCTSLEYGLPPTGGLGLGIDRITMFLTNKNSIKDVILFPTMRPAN

Measurements from “University of Dundee, Small-Polar-MMV Screening Library” (2021), ChEMBL document CHEMBL3988442.

A: 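ClpP1P2, Mycobacterium tuberculosis (UniProt P9WPC5 and UniProt P9WPC3). Protease assay of ClpP1P2, read by the AMC dye that it sets free. Concentration: 50 µM. Higher reads as stronger inhibition, judged from the few compounds that gave an IC50. Most other retested compounds had strongly negative values. About 69,000 compounds were tested under these conditions; 0.015% (about 10) showed 50% or more at least once.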
B: 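Assay of Toxoplasma gondii numbers, read through their beta-galactosidase reporter with a colour substrate. Tested at 10 µM. The record gives no direction; the compounds picked for IC50 retests had high values, so higher reads as fewer parasites. Size under these conditions: about 67,000 compounds, about 260 of them at 50% or above in at least one test.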
C: 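Histidine-tRNA ligase, Trypanosoma cruzi CL Brener (UniProt Q4DA54). Enzyme assay of histidyl-tRNA synthetase; the read-out is not stated. Tested at 30 µM. The record gives no direction; compounds that gave an IC50 in retests scored well above the rest, so higher reads as stronger inhibition. Of about 69,000 compounds tested this way, about 31 (0.045%) reached 50% or more in at least one test.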
D: 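Enzyme assay of the thioesterase domain of polyketide synthase 13; the read-out is not stated. Target: Polyketide synthase Pks13, Mycobacterium tuberculosis (UniProt I6X8D2). Compounds at 30 µM. The record gives no direction; the compounds picked for IC50 retests had high values, so higher reads as stronger inhibition. About 67,000 compounds were tested under these conditions; 0.46% (about 300) showed 50% or more at least once.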
E: 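Enzyme assay of the cytosolic lysyl-tRNA synthetase in 384-well plates, read by luminescence. Target: Lysine-tRNA ligase, Plasmodium falciparum 3D7 (UniProt Q8IDJ8). Tested at 30 µM. Higher reads as stronger inhibition, judged from the few compounds that gave an IC50. Size under these conditions: about 69,000 compounds, about 49 of them at 50% or above in at least one test.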

Results are given as percent effect. The record does not define 0% and 100%; most values in the screen are far below 50% and negative numbers occur (in some assays of this library far below -100). The compounds are a random part of those screened. A dash means the value is not listed here; it may have been measured.

| structure | A | B | C | D | E |
|---|---|---|---|---|---|
| `Cc1nn(C)c(N(C)C)c1CNC(C)COc1ccc(F)cc1` (stereo not drawn) | -17.09 | -12.18 | 0.5714 | -6.257 | 0.02766 |
| `c1ncn(CC2CCCN(CC3CCCCC3)C2)n1` (stereo not drawn) | 7.659 | 3.121 | 11.6 | -41.03 | 1.715 |
| `COc1cc(C)ccc1OCC(=O)NS(=O)(=O)c1cccnc1` | -7.873 | 2.487 | 3.982 | -1.637 | 6.582 |
| `CN(C)CCN(C)C(=O)c1cn(CC2CCCCC2)nn1` | -12.6 | -1.218 | 1.493 | 1.831 | -0.6545 |
| `CCCc1cc(C(=O)N2CCCC2c2cccnc2)[nH]n1` (stereo not drawn) | 7.821 | -9.62 | -0.8264 | -6.2 | 1.976 |
| `Cc1ccc(-n2c(C)nnc2SCC(O)COCc2ccco2)cc1` (stereo not drawn) | -1.79 | - | 13.79 | -10.17 | -0.5879 |
| `CN(Cc1cccs1)C(=O)c1ccc(=O)n(C)c1` | -0.1307 | - | 11.49 | -12.08 | 1.96 |
| `Cc1cc(C)n(-c2cncc(N3CCN(C(=O)C(C)(C)C)CC3)n2)n1` | -10.07 | -1.324 | 3.743 | 21.13 | 11.64 |
| `O=C(NCCc1cccnc1)N1CCCC1c1ccsc1` (stereo not drawn) | 12.33 | -6.09 | 2.29 | -4.895 | 2.579 |
| `Cn1cc(CN2CCCC3(CCCCN3S(C)(=O)=O)C2)cn1.O=C(O)C(F)(F)F` (stereo not drawn) | - | -9.706 | - | - | - |
| `O=C(c1cc(Cn2ccc3ccccc32)[nH]n1)N1CCC[C@H]1CO` | -23.98 | 12.25 | -16.59 | 0.6722 | 2.633 |
| `CC(C)c1nn(C)c(N(C)C)c1CNC(C)c1ccc2c(c1)OCO2.Cl` (stereo not drawn) | - | 14.99 | - | - | - |
| `CSc1ccc(C(C(=O)O)N2CCCC2)cc1` (stereo not drawn) | -18.75 | -38.39 | 0 | -19.4 | 1.051 |
| `O=C(c1cccc(O)c1)N1C[C@@H](CN2CCCCC2)[C@@H](CO)C1` | 7.44 | 3.144 | 2.235 | -38.86 | 3.515 |
| `CN1CCC(N2CCOC[C@H](OCC(=O)N(C)C)C2)CC1` | -16.22 | -0.07437 | 4.478 | 0.1366 | 8.916 |
| `C[C@H]1CN(Cc2cccc(F)c2)C[C@@]12CCN(CC(=O)N(C)C)C2=O` | -6.307 | - | 0.9709 | -18.83 | 2.023 |
| `CN(C)C(=O)COCc1cncc2c1CCN(Cc1ccccn1)C2.O=C(O)C(F)(F)F.O=C(O)C(F)(F)F` | - | -12.78 | - | - | - |
| `O=C(O)C(F)(F)F.O=C(O)C(F)(F)F.[H][C@@]12CN(Cc3ccc(F)cc3)C[C@]1([H])OCCN2CC1CCCO1` (stereo partly drawn) | - | 0.7647 | - | - | - |
| `O=C(O)C(F)(F)F.[H][C@@]12COC[C@]1(COc1ccccn1)CN(C(=O)c1c(C)noc1C)C2` | - | 7.194 | - | - | - |
| `CN1CCN2CCN(C(=O)c3cnn4cc(CCO)cnc34)CC2C1` (stereo not drawn) | -7.286 | -0.4756 | 7.389 | -27.82 | 6.355 |
| `O=C(NCCNc1ncccn1)N1CCCC1` | -23.17 | 14.52 | 6.105 | 5.211 | 1.616 |
| `CCc1c(C)nn2c(O)cc(C3CCN(C(=O)c4cnn(C)c4)C3)nc12` (stereo not drawn) | -14.87 | 15.41 | 4.52 | -4.764 | 1.25 |
| `COCCN(C)CC(=O)N1CCCC2(CCC(=O)N(CC3CC3)C2)C1` (stereo not drawn) | 15.49 | 12.27 | 8.205 | -15.03 | -0.4146 |
| `Cc1ncsc1-c1nnc(C2CCCN2C(=O)CCn2cccn2)o1` (stereo not drawn) | 12.33 | -25.66 | 6.818 | 10.84 | 1.181 |
| `CC(=O)N1CCC(NC(=O)c2cc(S(N)(=O)=O)ccc2C)CC1` | 1.739 | 14.41 | 13 | -0.3311 | 4.69 |
| `Cc1nc(CNC(=O)CC2C(=O)NCCN2CCC(C)C)n[nH]1` (stereo not drawn) | 5.923 | 3.942 | -18.09 | -18.65 | -2.37 |
| `Cn1ncc2c1CCCN(C(=O)C1CCC1)C2` | 21.62 | 1.201 | 8.333 | -14.23 | 1.835 |
| `O=C(O)CCN(Cc1ccc(F)c(F)c1)C(=O)C1CC1` | -9.738 | -0.7415 | 2 | 2.323 | 0.1986 |
| `CCOC(=O)N1CCN(c2nc(N)c3ccccc3n2)CC1` | -4.827 | - | 7.955 | 11.72 | 2.309 |
| `O=C(c1cscn1)N1C[C@@H]2[C@@H](C1)OCC(=O)N2CC1CCCC1` | -14.37 | - | -68.62 | 26.13 | 3.042 |
| `O=C(C1CC1)N1CCC2(CC1)COCCN2Cc1ccc(F)cc1.O=C(O)C(F)(F)F` | - | -7.706 | - | - | - |
| `CC(C)CCN(C)Cn1ncc2cn(-c3ccccc3)nc2c1=O` | 8.55 | 5.556 | 4.813 | 2.052 | -1.345 |
| `Cc1cc(NCc2nnc3n2CCC3)n2nc(C)c(C)c2n1` | -6.344 | -0.3234 | 7.595 | -23.66 | 0.4514 |
| `[H][C@@]12CS(=O)(=O)C[C@]1([H])N(Cc1ccc(F)c(C)c1)CCN2CC1CC1` | - | 5.571 | - | - | - |
| `CNc1cc(C2CN(C(=O)c3cscn3)CCO2)nc(C)n1` (stereo not drawn) | -2.039 | -3.873 | 3.876 | -5.113 | -1.774 |
| `CN(C)c1ncccc1CNC(=O)c1csc(Br)c1` | 3.528 | -2.596 | 1.538 | -17.49 | 0.3119 |
| `O=C(NCc1cnc2n1CCN(CC1CC1)CC2)C1CCC1` | -1.121 | 2.18 | -0.8475 | -9.969 | 5.946 |
| `Clc1ccccc1CN1CCc2nc(C3CCCCN3)ncc2C1` (stereo not drawn) | -0.5299 | - | 3.825 | -36.3 | 5.97 |
| `COCc1cn(C[C@H]2C[C@@H]3CCN2C[C@@H]3C(=O)N2CCOCC2)nn1` | -6.388 | - | 8.696 | -21.22 | -2.472 |
| `CC(C)N1C(=O)C2(CCN(C)CC2)c2cc(F)ccc21` | 0.0803 | - | 1.031 | 1.223 | 1.546 |
| `Cn1nc(C2CCN(C(=O)c3cccs3)CC2)c2cccnc21` | -7.505 | -3.721 | 1.064 | -19.69 | 0.5119 |
| `COc1c(CNCCNC(=O)c2cccs2)c(C)nn1C` | -6.778 | -9.221 | 4.094 | -1.618 | 1.331 |
| `CCc1nc(C)c([C@H]2CN(C)C[C@@H]2C(=O)Nc2ccccc2F)[nH]1` | 3.478 | 9.249 | -2.116 | -31.88 | -1.496 |
| `COc1ncnc(N(C)C)c1NC(=O)c1cscc1C` | 0.375 | 2.519 | -5.172 | 3.257 | 4.703 |
| `CC(C)COC(C)C(=O)NCc1ccc(Cn2ccnc2)cc1` (stereo not drawn) | -1.392 | -1.057 | 0.578 | -50.97 | 0.9167 |
| `Cc1nc(CN2C(=O)CCC23CCN(c2ncccc2C)CC3)cs1` | -12.82 | -1.966 | 6.667 | 48.49 | 1.628 |
| `CN1CCN(C2CCN(CCOc3cccc(F)c3)CC2)C1=O` | -6.539 | 4.964 | -9.195 | -7.413 | 0.4513 |
| `CS(=O)(=O)NC[C@]12COC[C@H]1CN(C(=O)CCc1ccccc1)C2` | 8.028 | - | 5.376 | -0.9098 | 4.032 |
| `[H][C@@]12CCN(C(=O)c3cscn3)C[C@@]1([H])O[C@H](c1ccncn1)C2` | - | 3.389 | - | - | - |
| `COC1CCCOC12CCN(C(=O)c1ccc3[nH]nnc3c1)CC2` (stereo not drawn) | -15.87 | -1.713 | 6.513 | -16.79 | 0.2313 |

The first 6 entries again:

| structure | A | B | C | D | E |
|---|---|---|---|---|---|
| `Cc1nn(C)c(N(C)C)c1CNC(C)COc1ccc(F)cc1` (stereo not drawn) | -17.09 | -12.18 | 0.5714 | -6.257 | 0.02766 |
| `c1ncn(CC2CCCN(CC3CCCCC3)C2)n1` (stereo not drawn) | 7.659 | 3.121 | 11.6 | -41.03 | 1.715 |
| `COc1cc(C)ccc1OCC(=O)NS(=O)(=O)c1cccnc1` | -7.873 | 2.487 | 3.982 | -1.637 | 6.582 |
| `CN(C)CCN(C)C(=O)c1cn(CC2CCCCC2)nn1` | -12.6 | -1.218 | 1.493 | 1.831 | -0.6545 |
| `CCCc1cc(C(=O)N2CCCC2c2cccnc2)[nH]n1` (stereo not drawn) | 7.821 | -9.62 | -0.8264 | -6.2 | 1.976 |
| `Cc1ccc(-n2c(C)nnc2SCC(O)COCc2ccco2)cc1` (stereo not drawn) | -1.79 | - | 13.79 | -10.17 | -0.5879 |